Data taken from ChEMBL document CHEMBL3988442, “University of Dundee, Small-Polar-MMV Screening Library” (2021).

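Viability assay of Plasmodium falciparum sporozoites; the read-out is not stated. The concentration is filed as 10 mM, unlikely as a test dose, so the dose is not known. Direction is inferred from retests: higher values go with lower viability. Strong results were mostly tested again. Of about 34,000 compounds tested this way, about 280 (0.84%) reached 50% or more in at least one test.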

Each number is a percent effect as filed.
The record does not define 0% and 100%; most values in the screen are far below 50% and negative numbers occur (in some assays of this library far below -100).
The compounds are a random part of those screened.
Two or more numbers in one place are separate tests of the same structure; such repeats can differ widely.

structure: CC(C)(C)c1nc(CN2CCCC2c2nnc3ccccn23)no1 (stereo not given)
effect: 3.581

structure: O=C(c1cccc(CN2CCCC2)c1)N1CCCC(n2cncn2)C1 (stereo not given)
effect: 11.52

structure: Cc1nn(C)c(Cl)c1C1CCCN1Cc1nc(-c2ccco2)no1 (stereo not given)
effect: 13.73 & 0.7356 & 6.345

structure: CCCNC(=O)CCNC(=O)N1CCc2c(F)ccc(F)c2C1
effect: -10.74 & -18.08

structure: COCCNc1ccc(CC2CCCN(C3CCCC3)C2)nn1 (stereo not given)
effect: 3.978

structure: COc1cccc(CNC(Cc2cccs2)c2nc(C)c(C)s2)c1OC.Cl (stereo not given)
effect: 6.273

structure: CCOc1ncccc1C(=O)N(C)C1CCN(c2ccccn2)CC1
effect: 14.39

structure: O=C(O)C(F)(F)F.[H][C@@]12CCCO[C@]1([H])[C@H](OCc1cccnc1)CN2C(=O)C1CC=CC1
effect: -6.569

structure: CCc1[nH]c2ccc(CNC(=O)c3cnc(N)nc3C)cc2c1C
effect: -5.088

structure: Cc1cccc(C)c1OCCCN1CCN(CC2CCCO2)CC1 (stereo not given)
effect: -20.1

structure: CC(=O)N1CCC(Cc2nccnc2-c2c(C)n[nH]c2C)C1 (stereo not given)
effect: -8.309

structure: COc1ccnc(N2CCC3(CC2)[C@H](O)C[C@@H]3OCCN(C)C)n1
effect: -14.27

structure: COc1cc(C)sc1C(=O)N1CCC(Nc2cccnc2)CC1
effect: -3.087

structure: CNC(=O)c1cccc(CN2CCC(N(C)Cc3nnc(C)o3)C2)c1 (stereo not given)
effect: -4.061

structure: Cn1cc(CN2CC[C@]3(C[C@H](Oc4ccccn4)CO3)C2)cn1.O=C(O)C(F)(F)F.O=C(O)C(F)(F)F
effect: 15.33

structure: Cc1cnn(CC2CN(Cc3nnc(C4CC4)n3C)CCO2)c1 (stereo not given)
effect: -3.28

structure: COc1ccc(C(C(=O)O)N2CCCN(C3CCCCC3)CC2)cn1 (stereo not given)
effect: 0.2307

structure: [H][C@@]12CN(c3ncccn3)C[C@H](C(=O)NCCOC)[C@]1([H])CCO2
effect: -1.515

structure: CC(C)N(C)CCNC(=O)NCc1ccccc1-n1cccn1
effect: -13.71

structure: Cl.Cl.Cn1cc(C(=O)NCc2cncc3c2CCN(CC2CC2)C3)cn1
effect: 9.958

structure: O=C(NCCCn1cccn1)NCC(c1ccco1)N1CCCC1 (stereo not given)
effect: -34.12

structure: CCN1CCCC(NC(=O)CCn2c(C(F)F)cc3cccnc32)C1 (stereo not given)
effect: 3.771

structure: Cc1cc(C)n(CC2CCCCN2C(=O)c2ccc3nncn3c2)n1 (stereo not given)
effect: -14.71

structure: O=C(CCNS(=O)(=O)c1ccc2c(c1)CCCC2)NCc1ccoc1
effect: -1.288

structure: CC(Cn1cccn1)NC(=O)CCc1ccc(S(N)(=O)=O)cc1 (stereo not given)
effect: 0

structure: CNC(=O)C1(c2cnccn2)CCCN1C(=O)c1ccc(OC)cc1 (stereo not given)
effect: -6.869

structure: c1cnn(CC2CN(c3ncnc4sccc34)CCO2)c1 (stereo not given)
effect: 1.804

structure: Cc1cc(NC(=O)CN2CCc3nn(C)c(=O)cc3C2)on1
effect: 3.135

structure: Cc1ncoc1C(=O)N1CCn2c(COc3cccnc3)cnc2C1C (stereo not given)
effect: -9.732

structure: Cc1cc(C(=O)NC(COCC(C)C)c2ccco2)no1 (stereo not given)
effect: 9.144

For reference, 3 entries once more:

{"structure": "O=C(CCNS(=O)(=O)c1ccc2c(c1)CCCC2)NCc1ccoc1", "effect": -1.288}
{"structure": "COc1ccc(C(C(=O)O)N2CCCN(C3CCCCC3)CC2)cn1", "stereo": "stereo not given", "effect": 0.2307}
{"structure": "CNC(=O)C1(c2cnccn2)CCCN1C(=O)c1ccc(OC)cc1", "stereo": "stereo not given", "effect": -6.869}